Experimental data: PubChem BioAssay AID686943 (Drosophila RNAi Screening Center, 2013)
The screen tested about 23,000 reagents; below is a random part of those that have a named target and a result. 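Extra replicates exist only for a retested subset of genes; insulin dose and duration not given; both raised and lowered dpERK matter.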 A plus sign joins genes that one reagent is predicted to hit. Not all columns of the deposit are shown. Not stated in the record: the amount of reagent, the time to read-out.

Assay: 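Fly genes whose loss alters ERK activation after insulin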 (primary screen)
Cell system: Drosophila S2R+ haemocyte-like cells expressing YFP-tagged ERK (Rolled)
Reagents: long dsRNA against Drosophila genes
Conditions: insulin stimulation versus unstimulated cells; dose and duration not given
Measurement: 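Per-plate z-scores of phospho-ERK immunostaining normalised to YFP-tagged ERK, measured with and without insulin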
Direction: replicate 1, z-score of dpERK with insulin and replicate 2, z-score of dpERK with insulin: higher = more active ERK per ERK-YFP after insulin

{"gene": "Ran", "DRSC id": "DRSC20364", "replicate 1, z-score of dpERK with insulin": 0.89, "replicate 2, z-score of dpERK with insulin": -0.78}
{"gene": "CG7214", "DRSC id": "DRSC03028", "replicate 1, z-score of dpERK with insulin": 0.52, "replicate 2, z-score of dpERK with insulin": 0.04}
{"gene": "CG7214", "DRSC id": "DRSC21869", "replicate 1, z-score of dpERK with insulin": -0.17, "replicate 2, z-score of dpERK with insulin": -0.66}
{"gene": "Ubr3 (Ubr3 ubiquitin ligase)", "DRSC id": "DRSC17987", "replicate 1, z-score of dpERK with insulin": 1.07, "replicate 2, z-score of dpERK with insulin": 1.3}
{"gene": "Ubr3 (Ubr3 ubiquitin ligase)", "DRSC id": "DRSC17997", "replicate 1, z-score of dpERK with insulin": 0.04, "replicate 2, z-score of dpERK with insulin": 0.12}
{"gene": "Sap47 (Synapse-associated protein 47kD)", "DRSC id": "DRSC16850", "replicate 1, z-score of dpERK with insulin": 0.13, "replicate 2, z-score of dpERK with insulin": -1.78}
{"gene": "amd (alpha methyl dopa-resistant)", "DRSC id": "DRSC02608", "replicate 1, z-score of dpERK with insulin": 0.64, "replicate 2, z-score of dpERK with insulin": 1.73}
{"gene": "amd (alpha methyl dopa-resistant)", "DRSC id": "DRSC03483", "replicate 1, z-score of dpERK with insulin": -0.1, "replicate 2, z-score of dpERK with insulin": 0.15}
{"gene": "tll (tailless)", "DRSC id": "DRSC17085", "replicate 1, z-score of dpERK with insulin": -0.14, "replicate 2, z-score of dpERK with insulin": -0.1}
{"gene": "gro (groucho)", "DRSC id": "DRSC16962", "replicate 1, z-score of dpERK with insulin": -1.32, "replicate 2, z-score of dpERK with insulin": -0.55}
{"gene": "CG30323", "DRSC id": "DRSC07656", "replicate 1, z-score of dpERK with insulin": 0.53, "replicate 2, z-score of dpERK with insulin": 0.07}
{"gene": "dyw (daywake)", "DRSC id": "DRSC18228", "replicate 1, z-score of dpERK with insulin": -0.41, "replicate 2, z-score of dpERK with insulin": 2.17}
{"gene": "CG31013", "DRSC id": "DRSC16542", "replicate 1, z-score of dpERK with insulin": 0.79, "replicate 2, z-score of dpERK with insulin": 1.28}

Reformatted: entries from further up
Ran [DRSC20364] — replicate 1, z-score of dpERK with insulin = 0.89; replicate 2, z-score of dpERK with insulin = -0.78
CG7214 [DRSC03028] — replicate 1, z-score of dpERK with insulin = 0.52; replicate 2, z-score of dpERK with insulin = 0.04
CG7214 [DRSC21869] — replicate 1, z-score of dpERK with insulin = -0.17; replicate 2, z-score of dpERK with insulin = -0.66
Ubr3 (Ubr3 ubiquitin ligase) [DRSC17987] — replicate 1, z-score of dpERK with insulin = 1.07; replicate 2, z-score of dpERK with insulin = 1.3

Further entries:
{"gene": "kra (krasavietz)", "DRSC id": "DRSC12320", "replicate 1, z-score of dpERK with insulin": -3.31, "replicate 2, z-score of dpERK with insulin": -3.09}
{"gene": "CG33981 + fab1", "DRSC id": "DRSC07412", "replicate 1, z-score of dpERK with insulin": 1.09, "replicate 2, z-score of dpERK with insulin": 0.01}
{"gene": "alrm (astrocytic leucine-rich repeat molecule)", "DRSC id": "DRSC14436", "replicate 1, z-score of dpERK with insulin": -0.4, "replicate 2, z-score of dpERK with insulin": -0.05}
{"gene": "CG6685", "DRSC id": "DRSC10695", "replicate 1, z-score of dpERK with insulin": -0.11, "replicate 2, z-score of dpERK with insulin": 0.28}
{"gene": "Sp212 (Serine-peptidase 212)", "DRSC id": "DRSC22930", "replicate 1, z-score of dpERK with insulin": 0.28, "replicate 2, z-score of dpERK with insulin": 0.47}
{"gene": "Hpf1 (Histone PARylation factor 1)", "DRSC id": "DRSC12202", "replicate 1, z-score of dpERK with insulin": -0.14, "replicate 2, z-score of dpERK with insulin": 0.27}
{"gene": "CG32444", "DRSC id": "DRSC11677", "replicate 1, z-score of dpERK with insulin": 0.57, "replicate 2, z-score of dpERK with insulin": -0.25}
{"gene": "Rfk (Riboflavin kinase)", "DRSC id": "DRSC15454", "replicate 1, z-score of dpERK with insulin": 0.95, "replicate 2, z-score of dpERK with insulin": 0.3}
{"gene": "CG2225", "DRSC id": "DRSC03722", "replicate 1, z-score of dpERK with insulin": 0.19, "replicate 2, z-score of dpERK with insulin": 0.43}
{"gene": "CG2225", "DRSC id": "DRSC03723", "replicate 1, z-score of dpERK with insulin": 0.08, "replicate 2, z-score of dpERK with insulin": 0.07}
{"gene": "Pabp2", "DRSC id": "DRSC07501", "replicate 1, z-score of dpERK with insulin": -1.84, "replicate 2, z-score of dpERK with insulin": -1.9}
{"gene": "PlexA (Plexin A)", "DRSC id": "DRSC17220", "replicate 1, z-score of dpERK with insulin": 0.58, "replicate 2, z-score of dpERK with insulin": -0.68}
{"gene": "nsr (novel spermatogenesis regulator)", "DRSC id": "DRSC04427", "replicate 1, z-score of dpERK with insulin": 0.08, "replicate 2, z-score of dpERK with insulin": 0.19}
{"gene": "nsr (novel spermatogenesis regulator)", "DRSC id": "DRSC22806", "replicate 1, z-score of dpERK with insulin": 0.11, "replicate 2, z-score of dpERK with insulin": -0.13}
{"gene": "CG15731", "DRSC id": "DRSC19698", "replicate 1, z-score of dpERK with insulin": 0.61, "replicate 2, z-score of dpERK with insulin": 0.73}
{"gene": "CG15731", "DRSC id": "DRSC21820", "replicate 1, z-score of dpERK with insulin": 0.85, "replicate 2, z-score of dpERK with insulin": -0.65}
{"gene": "CG1468", "DRSC id": "DRSC17946", "replicate 1, z-score of dpERK with insulin": -1.16, "replicate 2, z-score of dpERK with insulin": 0.64}
{"gene": "cnir (cornichon related)", "DRSC id": "DRSC00499", "replicate 1, z-score of dpERK with insulin": 0.34, "replicate 2, z-score of dpERK with insulin": -0.06}
{"gene": "CG9471", "DRSC id": "DRSC16499", "replicate 1, z-score of dpERK with insulin": 0.4, "replicate 2, z-score of dpERK with insulin": 0.28}
{"gene": "CG43980", "DRSC id": "DRSC11500", "replicate 1, z-score of dpERK with insulin": 0.16, "replicate 2, z-score of dpERK with insulin": 0.43}
{"gene": "CG43980", "DRSC id": "DRSC11646", "replicate 1, z-score of dpERK with insulin": -0.01, "replicate 2, z-score of dpERK with insulin": 0.91}
{"gene": "CG43980", "DRSC id": "DRSC22923", "replicate 1, z-score of dpERK with insulin": -0.29, "replicate 2, z-score of dpERK with insulin": -0.37}
{"gene": "RPA2 (Replication protein A2)", "DRSC id": "DRSC03184", "replicate 1, z-score of dpERK with insulin": 0.11, "replicate 2, z-score of dpERK with insulin": 0.01}
{"gene": "CG5877", "DRSC id": "DRSC19963", "replicate 1, z-score of dpERK with insulin": -0.03, "replicate 2, z-score of dpERK with insulin": 0.14}
{"gene": "Prp16 (pre-mRNA processing factor 16)", "DRSC id": "DRSC19538", "replicate 1, z-score of dpERK with insulin": 0.29, "replicate 2, z-score of dpERK with insulin": 0.26}
{"gene": "Prp16 (pre-mRNA processing factor 16)", "DRSC id": "DRSC19542", "replicate 1, z-score of dpERK with insulin": 0.46, "replicate 2, z-score of dpERK with insulin": 0.39}
{"gene": "Cpr (Cytochrome P450 reductase)", "DRSC id": "DRSC03293", "replicate 1, z-score of dpERK with insulin": -0.51, "replicate 2, z-score of dpERK with insulin": 0.32}
